For the experiment, the target named is T1, Rac GTPase activating protein 1 (human (endogenous in NOZ and GBC-SD)) (UniProt Q9H0H5).
T1 sequence: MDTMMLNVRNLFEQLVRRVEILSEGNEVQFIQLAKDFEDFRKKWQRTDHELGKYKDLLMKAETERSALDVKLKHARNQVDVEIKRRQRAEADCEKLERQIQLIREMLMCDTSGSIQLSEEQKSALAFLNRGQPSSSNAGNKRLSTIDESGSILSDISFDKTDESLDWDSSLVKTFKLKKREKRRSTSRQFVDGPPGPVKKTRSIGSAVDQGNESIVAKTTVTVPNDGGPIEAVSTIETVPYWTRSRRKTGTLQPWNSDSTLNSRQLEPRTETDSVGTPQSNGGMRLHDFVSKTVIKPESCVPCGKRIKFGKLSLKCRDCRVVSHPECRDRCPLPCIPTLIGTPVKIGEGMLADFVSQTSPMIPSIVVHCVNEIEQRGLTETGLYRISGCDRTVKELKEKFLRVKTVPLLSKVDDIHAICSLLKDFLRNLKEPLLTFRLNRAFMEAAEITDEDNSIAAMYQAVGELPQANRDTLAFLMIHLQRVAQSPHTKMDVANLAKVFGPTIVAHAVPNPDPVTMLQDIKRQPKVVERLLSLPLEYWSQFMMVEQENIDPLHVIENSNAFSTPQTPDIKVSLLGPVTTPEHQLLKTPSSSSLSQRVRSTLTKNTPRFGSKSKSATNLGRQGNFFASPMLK
The experiment can be described thus: affinity purification with mass spectrometry; IP-MS for binding factors of RACGAP1; sample run on a 10% acrylamide gel, in-gel trypsin digestion, MS-MS; candidates with UnquePepCount ≥3, overlapped with the STRING database (interaction score ≥0.900); cell line not stated.

These are yes or no findings as the source states them, for the method shown. Binding seen in cells or lysates may run through a third protein. Here binding means that the protein was enriched with, or labelled near, the bait; the list need not be complete.

B1: DNA ligase 3 (protein, UniProt P49916 43-1009)
chain: LLHGHPLFLRRKPVLSFQGSHLRSRATYLVFLPGLHVGLCSGPCEMAEQRFCVDYAKRGTAGCKKCKEKIVKGVCRIGKVVPNPFSESGGDMKEWYHIKCMFEKLERARATTKKIEDLTELEGWEELEDNEKEQITQHIADLSSKAAGTPKKKAVVQAKLTTTGQVTSPVKGASFVTSTNPRKFSGFSAKPNNSGEAPSSPTPKRSLSSSKCDPRHKDCLLREFRKLCAMVADNPSYNTKTQIIQDFLRKGSAGDGFHGDVYLTVKLLLPGVIKTVYNLNDKQIVKLFSRIFNCNPDDMARDLEQGDVSETIRVFFEQSKSFPPAAKSLLTIQEVDEFLLRLSKLTKEDEQQQALQDIASRCTANDLKCIIRLIKHDLKMNSGAKHVLDALDPNAYEAFKASRNLQDVVERVLHNAQEVEKEPGQRRALSVQASLMTPVQPMLAEACKSVEYAMKKCPNGMFSEIKYDGERVQVHKNGDHFSYFSRSLKPVLPHKVAHFKDYIPQAFPGGHSMILDSEVLLIDNKTGKPLPFGTLGVHKKAAFQDANVCLFVFDCIYFNDVSLMDRPLCERRKFLHDNMVEIPNRIMFSEMKRVTKALDLADMITRVIQEGLEGLVLKDVKGTYEPGKRHWLKVKKDYLNEGAMADTADLVVLGAFYGQGSKGGMMSIFLMGCYDPGSQKWCTVTKCAGGHDDATLARLQNELDMVKISKDPSKIPSWLKVNKIYYPDFIVPDPKKAAVWEITGAEFSKSEAHTADGISIRFPRCTRIRDDKDWKSATNLPQLKELYQLSKEKADFTVVAGDEGSSTTGGSSEENKGPSGSAVSRKAPSKPSASTKKAEGKLSNSNSKDGNMQTAKPSAMKVGEKLATKSSPVKVGEKRKAADETLCQTKVLLDIFTGVRLYLPPSTPDFSRLRRYFVAFDGDLVQEFDMTSATHVLGSRDKNPAAQQVSPEWIWACIRKRRLVAPC
With B1, the binding result is given as “binds”.
